Source: article PMC7726220
Results are given in words; binding and its absence hold for the method and conditions named. Binding seen in cells or lysates may run through a third protein. Some binding calls cover weakened binding; strength is not graded here. Sequences can lack the tags named with a protein.

What was measured:
[1] = molecular target: T1, SNT truncation of T132A-Flag (mouse) (UniProt Q922P8); test: co-IP; HEK 293T cells transiently transfected with tagged constructs (or endogenous partner); lysis in 50 mM Tris-HCl pH 8.0, 150 mM NaCl, 10% glycerol, 1 mM EDTA, 1% DDM or 0.5% NP-40; anti-Flag M2, anti-c-Myc or anti-HA magnetic beads; Western blot; in Figure 6D with or without overexpressed TMEM132A
T1 sequence: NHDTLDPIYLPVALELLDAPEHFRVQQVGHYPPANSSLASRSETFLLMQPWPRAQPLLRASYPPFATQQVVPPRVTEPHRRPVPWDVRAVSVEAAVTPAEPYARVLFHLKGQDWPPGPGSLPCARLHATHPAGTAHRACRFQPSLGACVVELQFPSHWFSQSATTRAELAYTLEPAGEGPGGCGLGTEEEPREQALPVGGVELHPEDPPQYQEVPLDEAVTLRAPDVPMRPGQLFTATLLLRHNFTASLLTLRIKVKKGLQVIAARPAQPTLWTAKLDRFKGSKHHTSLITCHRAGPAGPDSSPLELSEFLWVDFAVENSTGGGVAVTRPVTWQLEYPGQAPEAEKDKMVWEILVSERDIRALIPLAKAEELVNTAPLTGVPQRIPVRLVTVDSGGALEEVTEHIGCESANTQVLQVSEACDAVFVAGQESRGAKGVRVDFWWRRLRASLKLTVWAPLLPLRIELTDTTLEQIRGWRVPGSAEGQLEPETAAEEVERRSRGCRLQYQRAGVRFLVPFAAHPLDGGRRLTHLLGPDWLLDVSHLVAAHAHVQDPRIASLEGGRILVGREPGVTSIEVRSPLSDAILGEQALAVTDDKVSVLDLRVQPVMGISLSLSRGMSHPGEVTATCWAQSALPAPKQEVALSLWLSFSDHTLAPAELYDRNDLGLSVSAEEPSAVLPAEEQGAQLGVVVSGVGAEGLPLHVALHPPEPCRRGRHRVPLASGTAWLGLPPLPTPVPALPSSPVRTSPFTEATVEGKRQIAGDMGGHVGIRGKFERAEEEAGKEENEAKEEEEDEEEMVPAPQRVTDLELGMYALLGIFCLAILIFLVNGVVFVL

[2] = molecular target: T2, Flag-tagged full-length TMEM132A (FL T132A-Flag) (mouse) (UniProt Q922P8); test: as above
T2 sequence: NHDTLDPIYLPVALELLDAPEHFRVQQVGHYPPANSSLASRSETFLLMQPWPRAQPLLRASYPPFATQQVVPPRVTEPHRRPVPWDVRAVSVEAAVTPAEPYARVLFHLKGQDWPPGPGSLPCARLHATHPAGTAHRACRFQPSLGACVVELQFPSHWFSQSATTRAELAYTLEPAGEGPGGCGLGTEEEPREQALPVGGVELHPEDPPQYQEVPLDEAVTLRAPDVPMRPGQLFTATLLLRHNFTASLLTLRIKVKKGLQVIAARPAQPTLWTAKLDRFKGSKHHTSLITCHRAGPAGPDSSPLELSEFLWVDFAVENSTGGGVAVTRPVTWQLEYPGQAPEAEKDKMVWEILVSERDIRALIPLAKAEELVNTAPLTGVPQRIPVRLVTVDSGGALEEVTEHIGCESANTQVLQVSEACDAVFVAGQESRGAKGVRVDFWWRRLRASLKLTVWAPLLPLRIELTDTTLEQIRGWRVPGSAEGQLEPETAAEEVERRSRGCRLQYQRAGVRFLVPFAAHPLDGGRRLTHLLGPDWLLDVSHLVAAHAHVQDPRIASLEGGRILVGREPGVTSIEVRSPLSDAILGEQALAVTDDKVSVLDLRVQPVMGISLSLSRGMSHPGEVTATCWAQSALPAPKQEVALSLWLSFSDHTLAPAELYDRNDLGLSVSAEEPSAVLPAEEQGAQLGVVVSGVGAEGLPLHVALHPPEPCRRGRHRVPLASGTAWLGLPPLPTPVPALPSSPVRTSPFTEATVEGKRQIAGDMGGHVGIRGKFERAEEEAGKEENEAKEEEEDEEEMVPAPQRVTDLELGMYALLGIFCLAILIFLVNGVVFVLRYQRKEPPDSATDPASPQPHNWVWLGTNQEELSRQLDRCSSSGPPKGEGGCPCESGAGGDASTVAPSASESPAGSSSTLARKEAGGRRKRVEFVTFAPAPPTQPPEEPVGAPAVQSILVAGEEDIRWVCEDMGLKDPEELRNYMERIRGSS

B1: HA-tagged full-length WLS (FL WLS-HA) (protein, UniProt Q6DID7-1 1-541)
chain: MAGAIIENMSTKKLCIVGGILLVFQIVAFLVGGLIAPAPTTAVPYTAIKCVDVRKNHHKTRWLAPWGPNKCDKIRDIEEAIPREIEANDIVFSVHIPLPSMEMSPWFQFMLFILQLDIAFKLNNQIRENAEISMDVSLGYRDDMFSEWTEMAHERVPRKLKCTFTSPKTPEHEGRYYNCDVLPFMEIGSVAHKYYLLNIRLPVNEKKKINVGIGEIKDIRLVGIHQNGGFTKVWFAMKTFLTPSIFIIMVWYWRRITMMSRPPVLLEKVIFALGISMTFINIPVEWFSIGFDWTWMLLFGDIRQGIFYAMLLSFWIIFCGEHMMDQHERNHIAGYWKQVGPIAVGSFCLFIFDMCERGVQLTNPFYSIWTTDVGTELAMAFIIVAGICLCLYFLFLCFMVFQVFRNISGKQSSLPAMSKVRRLHYEGLIFRFKFLMLITLACAAMTVIFFIVSQVSEGHWKWGGVTVQVSSAFFTGIYGMWNLYVFALMFLYAPSHKNYGEDQSNGDLGVHSGEELQLTTTITHVDGPTEIYKLTRKEAQE
binding [1]: binds | binding [2]: binds
